Measured data: PubChem BioAssay AID504786 (Drosophila RNAi Screening Center, 2011)
In all, the deposit lists about 21,000 reagents; below is a random part of those that have a named target and a result. 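Primary screen; positive scores mean lost reporter signal, so the sign may be inverted from the usual convention.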 A plus sign joins genes that one reagent is predicted to hit. Further read-outs or replicates are left out here.

Assay: 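Knock-downs reducing HIF reporter induction by the iron chelator DFO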 (primary screen)
Cell system: Drosophila S2 cells with a stable HIF luciferase reporter
Knock-down reagent: long dsRNA against Drosophila genes, about 0.2 µg dsRNA per well of a 384-well plate
Time to read-out: three days of knock-down, then 20 h of DFO before reading
Treatment: desferrioxamine (DFO) at 100 µM, an iron chelator that mimics hypoxia, for 20 h
Read-out: 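HIF reporter luminescence in cells given 100 µM DFO for 20 h, using the mouse ldh-a hypoxia-response element, scored as per-plate z-scores; higher means greater loss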
Reading the numbers: z-score: higher = stronger loss of HIF reporter signal

| gene | dsRNA | z-score, replicate 1 | z-score, replicate 2 | z-score, replicate 3 |
| --- | --- | --- | --- | --- |
| CG13837 (GeneID 42720) | DRSC14687 | -0.3 | -0.3 | – |
| CG11788 (GeneID 37295) | DRSC06084 | -0.3 | -0.5 | – |
| Gclc (GeneID 53581) | DRSC18666 | -0.3 | -0.4 | – |
| por (GeneID 32818) | DRSC20362 | -0.4 | -0.2 | – |
| CR31700 (GeneID 8673969) | DRSC03682 | 0 | -0.1 | – |
| Boh1 (GeneID 338395) | DRSC14487 | -0.4 | -0.1 | – |
| CG15020 (GeneID 38544) | DRSC08474 | -0.2 | -0.5 | – |
| Gr2a (GeneID 31093) | DRSC18603 | -0.3 | -0.2 | – |
| CG8281 (GeneID 38880) | DRSC10976 | -0.4 | -0.3 | – |
| aus (GeneID 42531) | DRSC13471 | 0.3 | 0.8 | – |
| aus (GeneID 42531) | DRSC13473 | 0.6 | -0.1 | – |
| aus (GeneID 42531) | DRSC15157 | 0 | 0.7 | – |
| Tailor (GeneID 40847) | DRSC12526 | 0.1 | -0.4 | – |
| Naa30B (GeneID 317976) | DRSC08245 | -0.3 | -0.2 | – |
| CG12885 (GeneID 43308) | DRSC14572 | 0 | 0.7 | – |
| Inos (GeneID 35671) | DRSC07655 | -0.2 | -0.5 | – |
| CG11293 (retired record) (GeneID 37745) | DRSC04098 | -0.4 | -0.4 | – |
| alien + CG17906 | DRSC02641 | -0.3 | -0.1 | – |
| CG13594 (GeneID 37940) | DRSC04229 | -0.4 | -0.8 | – |
| CG31404 (GeneID 318714) | DRSC15497 | -1.1 | -0.7 | – |
| B9d1 (GeneID 41888) | DRSC14993 | -0.2 | -0.4 | – |
| CASK (GeneID 42567) | DRSC14588 | -0.5 | -0.5 | -0.3 |
| CASK (GeneID 42567) | DRSC16597 | 0.1 | 0 | – |
| CASK (GeneID 42567) | DRSC16598 | 1 | 0.1 | – |
| CG32087 (GeneID 39323) | DRSC10806 | -0.2 | -0.6 | – |
| shv (GeneID 33220) | DRSC00640 | 0.1 | -0.1 | – |
| CG14418 (GeneID 31275) | DRSC18637 | 0.8 | 0.2 | – |
| CG4017 (GeneID 34296) | DRSC02733 | -0.3 | -0.4 | – |
| CG17780 + CG17781 | DRSC15266 | -0.4 | -0.1 | – |
| CG6425 (GeneID 43216) | DRSC16038 | -0.3 | 0 | – |
| Git (GeneID 36122) | DRSC06620 | -0.1 | 0.1 | – |
| CG33493 (GeneID 2768994) | DRSC10642 | -0.3 | -0.1 | – |
| CG3558 (GeneID 48421) | DRSC00615 | -0.4 | -0.7 | – |
| CG4995 (GeneID 34390) | DRSC02801 | -0.4 | -0.6 | – |
| Tango9 (GeneID 41450) | DRSC14173 | -0.1 | -0.2 | – |
| Dlc90F (GeneID 42199) | DRSC16649 | 0 | 0.1 | – |
| Slip1 (GeneID 43809) | DRSC17146 | -0.2 | -0.1 | – |
| CG16721 (GeneID 31520) | DRSC18113 | -0.1 | -0.1 | – |
| wol (GeneID 34134) | DRSC03077 | -0.3 | 1.3 | – |
| CG3703 (GeneID 31045) | DRSC18172 | -0.4 | -0.4 | – |
| CG3703 (GeneID 31045) | DRSC18173 | -0.2 | -0.1 | – |
| CG3703 (GeneID 31045) | DRSC18643 | -0.2 | -0.7 | – |
| Spase25 (GeneID 32095) | DRSC19776 | -0.5 | -0.4 | – |
| CG13130 (retired record) (GeneID 50439) | DRSC02226 | 0.3 | 0.3 | – |
| CG31473 (GeneID 318753) | DRSC15443 | -0.5 | -0.5 | – |
| Hsc70-3 (GeneID 32133) | DRSC20253 | -0.4 | 1 | – |
| Usp8 (GeneID 42509) | DRSC15876 | 0 | 0.1 | – |
| NAAT1 (GeneID 31457) | DRSC18300 | 0.1 | -0.4 | – |
| Mcm7 (GeneID 39014) | DRSC11219 | 0.1 | 0.3 | – |
| Lnpk (GeneID 35842) | DRSC07254 | -0.1 | -0.1 | – |
| CG17687 (GeneID 39495) | DRSC10279 | 0.1 | 0 | – |
| hop (GeneID 32080) | DRSC20340 | 0.3 | 0.1 | – |
| Ccp84Af (GeneID 40820) | DRSC12591 | -0.1 | -0.1 | – |
| CG10809 (GeneID 39159) | DRSC09802 | -0.2 | 0 | – |
| ttv (GeneID 36614) | DRSC07709 | -0.3 | -0.5 | – |
| retinin (GeneID 53564) | DRSC09940 | -0.2 | -0.7 | – |
| SdhBL (GeneID 32887) | DRSC20039 | -0.3 | -0.1 | – |
| CG3448 (GeneID 39094) | DRSC10368 | -0.3 | -0.8 | – |
| mei-S332 (GeneID 37523) | DRSC04704 | -0.1 | -0.1 | – |
| CG12691 (GeneID 31370) | DRSC17880 | -0.2 | -0.3 | – |
| mtgo (GeneID 34987) | DRSC02245 | 0.2 | 1 | 3.9 |
| mtgo (GeneID 34987) | DRSC02246 | -0.1 | -0.6 | 1.7 |
| mtgo (GeneID 34987) | DRSC02769 | 0 | 0.5 | – |
| nclb (GeneID 36150) | DRSC07009 | -0.2 | -0.2 | – |
| CG6059 (GeneID 43270) | DRSC15958 | -0.4 | -0.5 | – |
| Idh (GeneID 44291) | DRSC10779 | 0 | 0 | – |
| CG11698 (GeneID 40986) | DRSC14355 | -0.7 | -0.3 | – |
| wde (GeneID 36133) | DRSC05955 | 0.6 | 1.3 | – |
| eIF4E7 (GeneID 31059) | DRSC17782 | -0.4 | 0 | – |
| eIF4E7 (GeneID 31059) | DRSC18623 | -0.4 | -0.3 | – |
| Np (GeneID 35904) | DRSC06089 | -0.3 | -0.5 | – |
| Np (GeneID 35904) | DRSC07094 | -0.3 | -0.3 | – |
| Nlg1 (GeneID 40913) | DRSC12485 | -0.3 | 0.3 | – |
| Nlg1 (GeneID 40913) | DRSC12532 | -0.1 | 0.7 | – |
| Nlg1 (GeneID 40913) | DRSC12533 | -0.3 | -0.8 | – |
| Nlg1 (GeneID 40913) | DRSC12539 | -0.3 | -0.6 | – |
| Cpr47Eg (GeneID 36196) | DRSC07330 | -0.1 | -0.2 | – |
| CG14325 (GeneID 42123) | DRSC14804 | -0.8 | 0.3 | – |
| POSH (GeneID 36990) | DRSC07499 | -0.3 | -0.5 | – |
| CkIIalpha-i3 (GeneID 38088) | DRSC08651 | -0.1 | 0 | – |
| mtDNA-helicase (GeneID 34307) | DRSC02912 | -0.2 | -0.3 | – |
| Rab39 (GeneID 31684) | DRSC17827 | -0.3 | 0.3 | – |
| Polr2I (GeneID 41741) | DRSC16832 | 4.3 | 3.7 | – |

Targets above whose gene name begins with M or m:
| gene | dsRNA | z-score, replicate 1 | z-score, replicate 2 | z-score, replicate 3 |
| --- | --- | --- | --- | --- |
| Mcm7 (GeneID 39014) | DRSC11219 | 0.1 | 0.3 | – |
| mei-S332 (GeneID 37523) | DRSC04704 | -0.1 | -0.1 | – |
| mtgo (GeneID 34987) | DRSC02245 | 0.2 | 1 | 3.9 |
| mtgo (GeneID 34987) | DRSC02246 | -0.1 | -0.6 | 1.7 |
| mtgo (GeneID 34987) | DRSC02769 | 0 | 0.5 | – |
| mtDNA-helicase (GeneID 34307) | DRSC02912 | -0.2 | -0.3 | – |
